Data on 3 molecules can be found in publication PMC5323046.

Assay [1] concerns the target T1, HA-tagged C9ORF72 (human), Q96LT7.
T1 chain: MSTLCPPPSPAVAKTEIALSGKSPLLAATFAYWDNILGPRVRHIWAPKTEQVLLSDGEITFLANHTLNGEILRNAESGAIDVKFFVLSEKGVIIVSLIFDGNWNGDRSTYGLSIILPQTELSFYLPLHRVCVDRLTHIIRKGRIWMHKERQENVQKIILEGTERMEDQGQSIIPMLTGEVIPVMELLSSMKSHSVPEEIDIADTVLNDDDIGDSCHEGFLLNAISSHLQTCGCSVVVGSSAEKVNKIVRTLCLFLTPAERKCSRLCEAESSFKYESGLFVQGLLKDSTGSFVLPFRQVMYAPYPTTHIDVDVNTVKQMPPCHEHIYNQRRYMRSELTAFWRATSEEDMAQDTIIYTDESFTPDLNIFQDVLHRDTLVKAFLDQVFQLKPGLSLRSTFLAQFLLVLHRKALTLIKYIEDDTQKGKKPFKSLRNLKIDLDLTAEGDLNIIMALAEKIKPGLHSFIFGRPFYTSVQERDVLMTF
In words: native gel or EMSA; HA-IP from 293T-REx cells inducibly expressing HA-tagged SMCR8, C9ORF72, ATG13 or ULK1, elution with HA peptide in PBS, Native PAGE (3-12% Bis-Tris), then immunoblot or in-gel digestion and mass spectrometry. As to conditions: remark: other sources report otherwise. For orientation: A gel shift assay detects complexes by their altered migration in electrophoresis.

The target in assay [2] is T2, HA-tagged C9ORF72 (human) (UniProt Q96LT7).
T2 sequence: T1 chain
The assay is described as above.

In assay [3] the target is T3, HA-tagged ATG13 (human) (UniProt O75143).
T3 sequence: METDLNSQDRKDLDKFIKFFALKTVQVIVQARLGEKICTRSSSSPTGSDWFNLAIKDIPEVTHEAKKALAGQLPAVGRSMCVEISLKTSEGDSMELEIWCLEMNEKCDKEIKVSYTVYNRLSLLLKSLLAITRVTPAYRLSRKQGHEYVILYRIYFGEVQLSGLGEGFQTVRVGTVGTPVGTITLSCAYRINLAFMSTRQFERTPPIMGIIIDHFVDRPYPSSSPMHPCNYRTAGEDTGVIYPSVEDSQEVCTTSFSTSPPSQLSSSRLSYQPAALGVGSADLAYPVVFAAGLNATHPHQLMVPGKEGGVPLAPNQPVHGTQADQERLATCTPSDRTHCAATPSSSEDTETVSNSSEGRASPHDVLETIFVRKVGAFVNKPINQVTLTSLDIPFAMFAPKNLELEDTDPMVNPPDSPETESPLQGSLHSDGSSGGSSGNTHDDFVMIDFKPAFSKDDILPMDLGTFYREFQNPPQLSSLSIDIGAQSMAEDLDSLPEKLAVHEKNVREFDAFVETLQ
Briefly: co-IP; HA-IP (anti-HA-agarose, overnight, 4°C, MCLB buffer) from 293T-REx cells inducibly expressing HA-tagged bait, empty cells (MOCK) as control; SDS-PAGE and immunoblot of endogenous partners; cells untreated, with DMSO or 250 nM Torin1 for 2 hr, or starved with EBSS for 2 hr. Background: Immunoblotting shows a protein as a band on a membrane.

The target in assay [4] is T3, HA-tagged ATG13 (human). Briefly: native gel or EMSA; HA-IP from 293T-REx cells inducibly expressing HA-tagged SMCR8, C9ORF72, ATG13 or ULK1, elution with HA peptide in PBS, Native PAGE (3-12% Bis-Tris), then immunoblot or in-gel digestion and mass spectrometry.
Assay [5] deals with T4, HA-tagged full-length SMCR8 (human) (UniProt Q8TEV9).
T4 sequence: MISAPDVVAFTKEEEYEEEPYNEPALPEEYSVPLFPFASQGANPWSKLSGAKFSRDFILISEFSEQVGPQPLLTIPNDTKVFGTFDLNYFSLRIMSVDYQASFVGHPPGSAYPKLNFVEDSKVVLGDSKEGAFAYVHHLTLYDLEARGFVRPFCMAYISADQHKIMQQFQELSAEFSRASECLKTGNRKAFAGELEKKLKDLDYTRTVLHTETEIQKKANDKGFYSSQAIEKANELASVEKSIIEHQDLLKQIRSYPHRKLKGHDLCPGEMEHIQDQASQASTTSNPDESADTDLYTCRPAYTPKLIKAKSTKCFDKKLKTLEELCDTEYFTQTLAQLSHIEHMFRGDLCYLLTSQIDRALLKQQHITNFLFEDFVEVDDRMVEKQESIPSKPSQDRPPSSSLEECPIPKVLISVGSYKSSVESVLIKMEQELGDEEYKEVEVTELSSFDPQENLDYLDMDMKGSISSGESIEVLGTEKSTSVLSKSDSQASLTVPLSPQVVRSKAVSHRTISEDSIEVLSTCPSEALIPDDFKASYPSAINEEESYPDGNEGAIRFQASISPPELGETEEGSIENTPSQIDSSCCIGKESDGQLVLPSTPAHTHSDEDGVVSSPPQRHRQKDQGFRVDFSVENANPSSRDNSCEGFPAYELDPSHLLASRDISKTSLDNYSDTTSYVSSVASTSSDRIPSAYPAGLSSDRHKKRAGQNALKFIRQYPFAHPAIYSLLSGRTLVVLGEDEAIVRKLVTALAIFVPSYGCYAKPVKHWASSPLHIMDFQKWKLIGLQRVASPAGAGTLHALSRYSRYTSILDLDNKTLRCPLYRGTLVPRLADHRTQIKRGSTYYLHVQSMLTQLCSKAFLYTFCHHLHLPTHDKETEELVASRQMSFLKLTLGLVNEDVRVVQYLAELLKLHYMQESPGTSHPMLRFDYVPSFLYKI
Described as above.

Results are given in words; binding and its absence hold for the method and conditions named. For some assays here: In cells and extracts the contact can be indirect. Some results given as binding are weak or reduced against the parent protein; the word gives no strength. Sequences can lack the tags named with a protein.

B1: endogenous WDR41, Q9HAD4 1-459 (protein)
chain: MLRWLIGGGREPQGLAEKSPLQTIGEEQTQNPYTELLVLKAHHDIVRFLVQLDDYRFASAGDDGIVVVWNAQTGEKLLELNGHTQKITAIITFPSLESCEEKNQLILTASADRTVIVWDGDTTRQVQRISCFQSTVKCLTVLQRLDVWLSGGNDLCVWNRKLDLLCKTSHLSDTGISALVEIPKNCVVAAVGKELIIFRLVAPTEGSLEWDILEVKRLLDHQDNILSLINVNDLSFVTGSHVGELIIWDALDWTMQAYERNFWDPSPQLDTQQEIKLCQKSNDISIHHFTCDEENVFAAVGRGLYVYSLQMKRVIACQKTAHDSNVLHVARLPNRQLISCSEDGSVRIWELREKQQLAAEPVPTGFFNMWGFGRVSKQASQPVKKQQENATSCSLELIGDLIGHSSSVEMFLYFEDHGLVTCSADHLIILWKNGERESGLRSLRLFQKLEENGDLYLAV
B1: the binding entry in assay [1] is reported as “binds”.

B2: endogenous SMCR8 (protein, UniProt Q8TEV9 1-937)
chain: T4 sequence
Regarding B2, the binding result in assay [2] and in assay [3] was “binds” throughout.

B3: endogenous ATG101 (protein, UniProt Q9BSB4 1-218)
chain: MNCRSEVLEVSVEGRQVEEAMLAVLHTVLLHRSTGKFHYKKEGTYSIGTVGTQDVDCDFIDFTYVRVSSEELDRALRKVVGEFKDALRNSGGDGLGQMSLEFYQKKKSRWPFSDECIPWEVWTVKVHVVALATEQERQICREKVGEKLCEKIINIVEVMNRHEYLPKMPTQSEVDNVFDTGLRDVQPYLYKISFQITDALGTSVTTTMRRLIKDTLAL
Consider B3, for which the binding result in assay [4] and in assay [5] was “binds” throughout.
